Measured values published in patent US10526370B2 (priority 2015, dated 2020).

Test: general procedure: Fmoc solid-phase peptide synthesis; Fmoc-Met-Rink amide MBHA resin; HBTU
Details: whole synthesis, scale of the general procedure 2 mmol

For Arg-Trp-Arg-Asn-Met, the “final purity (method not given)” value was >98%.
